Results from PubChem BioAssay AID493014 (National Center for Advancing Translational Sciences (NCATS), 2011).
Among all 340,000 compounds or so, about 170 (0.05%) were called active. Inconclusive results, whose numbers are uncertain, are shown with a selection of clear calls. The call rests on the fitted dose curve; in most records, active means well fitted inhibition curve with a large enough effect in the signal ratio, with a control signal flat (not every such curve was filed as active); inconclusive means small, poorly fitted or top-dose-only effect, or effect the other way, or a change in a side signal; inactive means flat fitted curve, though single readings scatter; the % refers to the signal ratio. Where the call is inconclusive, the potency comes from a doubtful curve fit.

Experiment: qHTS Assay to Find Inhibitors of Chronic Active B-Cell Receptor Signaling;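 on activity change, negative = inhibition: plate controls were basal doxycycline-induced cells for no effect and cells given 10 µM MG132 for full effect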
Conditions: ABC-DLBCL IkBa-CBG/CBR reporter, luminescence ratio (green luciferase fused to IkBa over red control in TMD8 lymphoma cells), 4 h; activity change, negative = inhibition: at 46.1 µM (top of the series)
In short: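 Cell line TMD8 (human ABC DLBCL), stably expressing tet-inducible CBG68-IkBa fusion and CBR; IMDM/0.5% FBS; cpd up to 46 uM; dox induction, 4 h, 37C/5% CO2; dual luminescence; green/red ratio; MG132 control.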
Potency means the concentration at half of the fitted maximal effect.

SMILES	activity change, negative = inhibition	Potency
O=C(Nc1ccc(O)c(C(=O)O)c1)c1ccc2c(c1)C(=O)N(CC1CCCO1)C2=O (stereo not drawn)	inconclusive: -4.7%	–
COc1ccc(S(=O)(=O)Cc2ccc(C(=O)N3CCN(c4cc(C)ccc4C)CC3)o2)cc1	inactive: -1.59%	–
COc1ccc(N/C=C\C(=O)c2ccc(C)cc2)cc1OC	inactive: -9.8%	–
O=C(O)c1cccnc1SCc1cccc(Cl)c1	inconclusive: 13.2%	–
Cc1nn(Cc2ccccc2Cl)c2sc(C(=O)NCc3ccc4c(c3)OCO4)cc12	inconclusive: -20.5%	–
C=CC[C@H](CC(=O)N[C@H](CO)Cc1ccccc1)C(=O)N[C@@H](COC(=O)[C@H](CC=C)CC(=O)OC(C)(C)C)Cc1c[nH]c2ccccc12	inconclusive: -2.42%	–
Cc1ccc(NC(=O)CSCC(=O)OC(C)C(=O)Nc2ccc(S(N)(=O)=O)cc2)c(C)c1 (stereo not drawn)	inactive: -3.16%	–
Cc1ccc(S(=O)(=O)N(Cc2n[nH]c(=S)n2-c2ccccc2)c2cccc(Cl)c2)cc1	inconclusive: -4.76%	–
CCC1Sc2ccc(S(=O)(=O)Nc3cc(OC)cc(OC)c3)cc2NC1=O (stereo not drawn)	inconclusive: -10.5%	–
Cc1ccc(S(=O)(=O)Nc2ccc3nc(-c4cccn4C)[nH]c3c2)cc1	inconclusive: 0.678%	–
CC1CCN(S(=O)(=O)c2ccc3c(c2)N(CC(=O)NCCCN2CC(C)CC(C)C2)C(=O)CS3)CC1 (stereo not drawn)	inactive: -11.4%	–
COc1cccc(-c2nc(CCl)cs2)c1OC	inconclusive: -3.32%	–
O=[N+]([O-])c1cccc(/C([O-])=C(/C(=S)Nc2ccccc2)[n+]2ccccc2)c1	–	inconclusive: 23.1 µM [falling, single point]
COC(=O)C1CSc2[nH]c(=O)sc2C1c1ccc(OC)c(OC)c1 (stereo not drawn)	inconclusive: -1.44%	–
Cc1ccc(S(=O)(=O)N2CCC[C@H]2C(=O)Nc2ccc(F)cc2C)cc1	inactive: -2.52%	–
C=CCNCCCCOc1c(Cl)cc(C)cc1Br	–	inconclusive: 20 µM [falling, single point]
O=C(O)CCC(=O)Nc1nc2nccc(-c3ccccc3)n2n1	–	inconclusive: 20 µM [falling, single point]
Cc1[nH]c2ccccc2c1/C=N/NC(=O)Nc1ccccc1	–	inconclusive: 22.4 µM [falling, single point]
Clc1ccc(-c2nnc(-c3ccccc3)c(-c3c[nH]c4ccccc34)n2)cc1	–	inconclusive: 15.8 µM [falling, partial curve]
COc1ccc(OC)c(N/C(N)=N/c2nc(C)cc(C)n2)c1	inconclusive: 7.11%	–
COc1ccc(OC)c(C2NC(=O)CCC2[N+](=O)[O-])c1 (stereo not drawn)	inconclusive: 4.04%	–

SMILES	activity change, negative = inhibition	Potency
O=C(Nc1ccccc1N1CCN(C(=O)c2ccccc2)CC1)c1ccccc1Cl	inactive: 5.61%	–
CC(C)(C)Nc1nc(NN)nc(NC(C)(C)C)n1	inactive: -0.57%	–
CC(C)c1ccc(NC(=S)NNC(=O)C2CC2)cc1	inconclusive: 4.72%	–
CCN(CC(=O)NCc1cccs1)C(=O)COc1ccccc1C#N	inconclusive: 0.48%	–
Cn1nnnc1SCC(=O)N1c2ccccc2Sc2ccccc21	inactive: -9.01%	–
Cc1ccc(-c2csc(=Nc3cccnc3)n2CCCN2CCCC2=O)cc1C	–	inconclusive: 29.1 µM [falling, partial curve, poor fit]
CC(=O)Nc1cccc(NC(=O)Nc2cccc(F)c2)c1	inactive: 7.11%	–
Cc1nc2ccccc2c(=O)n1CC(=O)N1CCOCC1	inconclusive: 4.46%	–
O=C(O)COCC(=O)Nc1ccc2c(c1)oc1ccccc12	–	inconclusive: 10 µM [falling, partial curve]
CCCN1C2CCCC1CC(NC(=O)Nc1ccc(C(C)C)cc1)C2 (stereo not drawn)	inactive: -19.4%	–
O=C(O)c1ccc(NC(CSCc2ccc(F)cc2)C(=O)O)c([N+](=O)[O-])c1 (stereo not drawn)	–	inconclusive: 9.2 µM [falling, partial curve]
Cc1ccc(CSC2=Nc3ccccc3C3=NC(CC(=O)NCc4ccco4)C(=O)N23)cc1 (stereo not drawn)	inconclusive: -8.84%	–
Cc1cccc(/C=N\Nc2cn[nH]c(=O)c2Cl)c1	inconclusive: 5.58%	–
CC(=O)n1nc(-c2ccc(C)cc2)nc1NCc1ccc(F)cc1	inconclusive: 6.04%	–
Brc1ccc(-n2cnc(-c3ccccc3)c2)cc1	inconclusive: -11.1%	–
O=C(O)c1ccc(NCc2ccc(Br)cc2)cc1	inactive: 0.321%	–
CC(=O)NCC(=O)N1CCCC(C(=O)c2ccc3c4c(cccc24)CC3)C1 (stereo not drawn)	–	inconclusive: 35.5 µM [falling, single point]
CCOc1cc(C(=O)OCC(=O)Nc2ccc(SC(F)F)cc2)cc(OCC)c1OCC	inconclusive: -0.815%	–
COc1cccc(/C=N/NC(=O)CSc2nnc(C)n2-c2ccccc2)c1O	–	inconclusive: 15.8 µM [falling, partial curve, poor fit]
Cc1ccc(C(=O)O/N=C(\N)Cc2cccs2)c(Cl)c1	inconclusive: -25.2%	–
Cc1ccc[n+](C(C)C(=O)Nc2ccc(C)c(C)c2)c1 (stereo not drawn)	inactive: -1.83%	–

Entries from the list above that have sulfur, in the order listed:
SMILES	activity change, negative = inhibition	Potency
COc1ccc(S(=O)(=O)Cc2ccc(C(=O)N3CCN(c4cc(C)ccc4C)CC3)o2)cc1	inactive: -1.59%	–
O=C(O)c1cccnc1SCc1cccc(Cl)c1	inconclusive: 13.2%	–
Cc1nn(Cc2ccccc2Cl)c2sc(C(=O)NCc3ccc4c(c3)OCO4)cc12	inconclusive: -20.5%	–
Cc1ccc(NC(=O)CSCC(=O)OC(C)C(=O)Nc2ccc(S(N)(=O)=O)cc2)c(C)c1 (stereo not drawn)	inactive: -3.16%	–
Cc1ccc(S(=O)(=O)N(Cc2n[nH]c(=S)n2-c2ccccc2)c2cccc(Cl)c2)cc1	inconclusive: -4.76%	–
CCC1Sc2ccc(S(=O)(=O)Nc3cc(OC)cc(OC)c3)cc2NC1=O (stereo not drawn)	inconclusive: -10.5%	–
Cc1ccc(S(=O)(=O)Nc2ccc3nc(-c4cccn4C)[nH]c3c2)cc1	inconclusive: 0.678%	–
CC1CCN(S(=O)(=O)c2ccc3c(c2)N(CC(=O)NCCCN2CC(C)CC(C)C2)C(=O)CS3)CC1 (stereo not drawn)	inactive: -11.4%	–
COc1cccc(-c2nc(CCl)cs2)c1OC	inconclusive: -3.32%	–
O=[N+]([O-])c1cccc(/C([O-])=C(/C(=S)Nc2ccccc2)[n+]2ccccc2)c1	–	inconclusive: 23.1 µM [falling, single point]
COC(=O)C1CSc2[nH]c(=O)sc2C1c1ccc(OC)c(OC)c1 (stereo not drawn)	inconclusive: -1.44%	–
Cc1ccc(S(=O)(=O)N2CCC[C@H]2C(=O)Nc2ccc(F)cc2C)cc1	inactive: -2.52%	–
CC(C)c1ccc(NC(=S)NNC(=O)C2CC2)cc1	inconclusive: 4.72%	–
CCN(CC(=O)NCc1cccs1)C(=O)COc1ccccc1C#N	inconclusive: 0.48%	–
Cn1nnnc1SCC(=O)N1c2ccccc2Sc2ccccc21	inactive: -9.01%	–
Cc1ccc(-c2csc(=Nc3cccnc3)n2CCCN2CCCC2=O)cc1C	–	inconclusive: 29.1 µM [falling, partial curve, poor fit]
O=C(O)c1ccc(NC(CSCc2ccc(F)cc2)C(=O)O)c([N+](=O)[O-])c1 (stereo not drawn)	–	inconclusive: 9.2 µM [falling, partial curve]
Cc1ccc(CSC2=Nc3ccccc3C3=NC(CC(=O)NCc4ccco4)C(=O)N23)cc1 (stereo not drawn)	inconclusive: -8.84%	–
CCOc1cc(C(=O)OCC(=O)Nc2ccc(SC(F)F)cc2)cc(OCC)c1OCC	inconclusive: -0.815%	–
COc1cccc(/C=N/NC(=O)CSc2nnc(C)n2-c2ccccc2)c1O	–	inconclusive: 15.8 µM [falling, partial curve, poor fit]
Cc1ccc(C(=O)O/N=C(\N)Cc2cccs2)c(Cl)c1	inconclusive: -25.2%	–

The results go on:

SMILES	activity change, negative = inhibition	Potency
Cc1ccc(NCN2C(=O)C(=O)c3ccccc32)nc1	–	inconclusive: 18.4 µM [falling, single point]
COc1ccc(OC)c(C2SCCN2S(C)(=O)=O)c1 (stereo not drawn)	inactive: 11.3%	–
COc1ccc2[nH]c3c(c2c1)CCN1C(=O)C(CC(=O)NCC24CC5CC(CC(C5)C2)C4)C[C@H](C(=O)N2CCCCC2)[C@@]31C (stereo partly drawn)	inconclusive: 0.573%	–
Cc1ccc(NC(=S)NNS(=O)(=O)c2ccc3ccccc3c2)cc1Cl	inactive: 3.5%	–
COc1ccc(C(=O)Nc2cc(C)ccc2NC(=O)COc2ccccc2)cc1	inconclusive: 17.5%	–
CCOC(=O)C1=NN(c2ccc(OC)cc2)C(c2ccccc2)CC1=O (stereo not drawn)	inconclusive: -25.1%	–
COc1cc(C(=O)NCC(c2cccs2)N2CCc3ccccc32)cc(OC)c1OC (stereo not drawn)	inconclusive: 10.4%	–
COc1cc2c(cc1OC)-c1cc(Nc3ccc(C)cc3)nc(=O)n1CC2	–	inconclusive: 12.6 µM [falling, partial curve]
CNc1sc(C(=O)c2ccc(F)cc2)c(N)c1-c1nc2ccccc2s1	–	inconclusive: 11.6 µM [falling, partial curve]
CC(C)(C)C(=O)OCc1nc(-c2ccc(F)cc2)cs1	inconclusive: 14.7%	–
O=C(CCCCCN1C(=O)c2ccccc2C1=O)NC1CCCC1	inactive: 9.18%	–
CCNC(=S)NNC(=O)Nc1ccccc1	inconclusive: 9.46%	–
CCOc1ncccc1C(=O)Nc1ncc(C)s1	inconclusive: 2.95%	–
Cc1ccc2nc(Nc3ccccc3)c(C=O)c(=O)n2c1	inactive: -0.175%	–
O=C(c1ccco1)N1CCN(C(=O)c2cn(-c3ccccc3)nc2-c2ccccc2)CC1	inactive: -0.745%	–
Cc1ccccc1N(C(=O)Cc1ccsc1)C(C(=O)NC1CCCCC1)c1ccc(F)cc1 (stereo not drawn)	inconclusive: -0.909%	–
Nc1nc2c(F)cccc2s1	inconclusive: 2.08%	–
Cc1n(N)c2ccccc2[n+]1CC(=O)c1ccccc1	inactive: 7.53%	–
COc1ccccc1CNC(=O)C1CCN(Cc2cc3ccccc3n2Cc2cccc(C)c2)CC1	inactive: 4.62%	–
Cc1cc(C(=O)COC(=O)CNS(=O)(=O)c2ccc3ccccc3c2)c(C)n1-c1ccccc1	inconclusive: 5.55%	–
c1ccc(-c2cn3nc4c(nc3n2)CCCC4)cc1	–	inconclusive: 16.4 µM [falling, partial curve]

SMILES	activity change, negative = inhibition	Potency
c1ccc2c(c1)ncn2-c1ccc(-c2ccnc3ncnn23)cc1	–	inconclusive: 0.501 µM [falling, partial curve, poor fit]
CC1CCCN(CC(O)COCC2COc3ccccc3O2)C1 (stereo not drawn)	inactive: 4.57%	–
COc1ccc(CCNC(=O)C(=O)NCC2OCCN2S(=O)(=O)c2ccc(OC)c(OC)c2)cc1 (stereo not drawn)	–	inconclusive: 11.2 µM [falling, single point]
C/C=C/c1ccc(OCCCCN2CCN(CC)CC2)c(OC)c1	inactive: -14.5%	–
Cc1ccccc1OCC(=O)NNC(=S)NC(=O)c1ccccc1[N+](=O)[O-]	–	inconclusive: 20.6 µM [falling, single point]
COc1ccc(-c2ccc(S(=O)(=O)NCC3CCCO3)cc2)cc1 (stereo not drawn)	inactive: 3.88%	–
O=C1/C(=C/c2cccs2)SC(=S)N1CCCC(=O)N(CCO)c1ccccc1	–	inconclusive: 35.5 µM [falling, single point]
CC(C)Cn1c(=O)c2c(nc3n2CC(C)CN3Cc2ccccc2)n(C)c1=O (stereo not drawn)	inconclusive: 11%	–
COc1ccc(C/C(C)=N/NC(=S)Nc2ccc(Cl)cc2)cc1	inconclusive: 7.39%	–
COC(=O)c1ccccc1NC(=O)CSc1nnc(C(C)NC(=O)c2ccc(Cl)cc2Cl)n1C (stereo not drawn)	–	inconclusive: 29.1 µM [falling, single point]
COc1ccc(CN2CCN(C(=O)c3ccco3)CC2)cc1OCc1ccccc1	inconclusive: -0.378%	–
Nc1cccc(-c2nc3ccccc3s2)c1	inconclusive: 11.6%	–
Cn1c(CO)c(-c2ccccc2)c2cc([N+](=O)[O-])ccc21	inactive: -0.596%	–
O=C(CSc1nccc(-c2cccs2)n1)Nc1ccc(Cl)cc1	inconclusive: -1.44%	–
CC(C)OCCCn1c(SCC(N)=O)nc2c(sc3ccccc32)c1=O	inconclusive: 23.8%	–
O=C(Nc1ccccc1)Nc1cccc2cccnc12	–	inconclusive: 29.1 µM [falling, single point]
CC(C)(C)Nc1nc(Cl)nc(Nc2ccccc2)n1	inconclusive: 3.15%	–
CCSc1nnc(NC(=O)c2c(C)noc2C)s1	–	inconclusive: 15.8 µM [falling, single point]
CCCC[C@@H]1CNCCN1CCc1cccc2ccccc12	inconclusive: -9.01%	–
c1ccc(OCc2nc(-c3ccccc3)no2)cc1	–	inconclusive: 25.9 µM [falling, single point]
